{"source": "PubChem BioAssay AID540256", "about": "(National Center for Advancing Translational Sciences (NCATS), 2011)", "note": "Among all 300,000 compounds or so, about 3,700 (1.2%) were called active. Inconclusive results, whose numbers are uncertain, are shown with a selection of clear calls. The call rests on the fitted dose curve; tested in HEK293 cells. A potency beside an inconclusive call is a rough fit, not a confirmed value. Potency means the concentration at half of the fitted maximal effect.", "data": [{"assay": "qHTS for Inhibitors of binding or entry into cells for Lassa Virus; further: nearly all actives have a fitted effect of over 50% in size", "settings": "Lassa virus pseudotype entry inhibition, cell reporter; series mostly up to 37.9 µM", "values": [{"smiles": "CCN(CC)S(=O)(=O)c1ccc(C)c(NC(=O)CNCc2ccccc2OC)c1", "Potency": "inconclusive: 0.562 µM [inhibitor, full curve, poor fit]"}, {"smiles": "Cc1cccc(C(=O)Nc2nnc(SCc3cc(=O)n4cccc(C)c4n3)s2)c1", "Potency": "inactive"}, {"smiles": "Cc1ccc(C(=O)Nc2cccc(N3C(=O)C4CCC(C)CC4C3=O)c2)cc1", "note": "(centres undefined)", "Potency": "inactive"}, {"smiles": "CC(C)n1cc(CN2CCN(CCc3ccccc3)C(CCO)C2)cn1", "note": "(centres undefined)", "Potency": "inactive"}, {"smiles": "CN(C(=O)C1CCCO1)c1nnc(-c2ccncc2)s1", "note": "(centres undefined)", "Potency": "inactive"}, {"smiles": "CCCCNC(=O)C(c1ccc(-c2ccccc2)cc1)N(CCN1CCOCC1)C(=O)CCCCCN1C(=O)NC(c2ccc([N+](=O)[O-])cc2)C(C(=O)OCc2ccccc2)=C1C", "note": "(centres undefined)", "Potency": "inactive"}, {"smiles": "O=C1C(Cc2ccc(Br)cc2)SC(=Nc2ccccc2)N1c1ccccc1", "note": "(centres undefined)", "Potency": "inconclusive: 20 µM [inhibitor, partial curve, poor fit]"}, {"smiles": "O=C(CCN1CCN(c2ccccc2)CC1)N/N=C/c1ccc([N+](=O)[O-])o1", "Potency": "inactive"}, {"smiles": "CS(=O)(=O)c1ccc(-c2nnc(NC(=O)c3ccc(S(=O)(=O)N4CCCC4)cc3)o2)cc1", "Potency": "inconclusive: 0.224 µM [activator, full curve, poor fit]"}, {"smiles": "CC1Cc2cc(-c3csc(N)n3)ccc2O1", "note": "(centres undefined)", "Potency": "inconclusive: 11.2 µM [inhibitor, partial curve, poor fit]"}, {"smiles": "O=C(NCCCN1CCCC1)C1CCN(C(=O)c2cc3sccc3n2Cc2ccc(F)cc2)CC1", "Potency": "inactive"}, {"smiles": "COc1ccc(C2CC(c3cccs3)=NN2S(=O)(=O)c2ccc(C)cc2)cc1", "note": "(centres undefined)", "Potency": "inconclusive: 10 µM [inhibitor, partial curve, poor fit]"}, {"smiles": "Cc1ccnc(NC(=O)C2COc3ccccc3O2)c1", "note": "(centres undefined)", "Potency": "inconclusive: 2.59 µM [activator, partial curve]"}, {"smiles": "O=C(NCc1ccccc1Cl)c1ccc(CSc2nc3ccncc3[nH]2)cc1", "Potency": "inconclusive: 10 µM [inhibitor, partial curve, poor fit]"}, {"smiles": "O=C(CCl)NC1(C(F)(F)F)C(=O)Nc2c1c(=O)[nH]c(=O)n2-c1ccccc1", "note": "(centres undefined)", "Potency": "inconclusive: 1.26 µM [activator, partial curve, poor fit]"}, {"smiles": "CCC1(C)Cc2c(sc3nnn(CC(=O)Nc4ccc(Cl)cc4)c(=O)c23)CO1", "note": "(centres undefined)", "Potency": "inconclusive: 29.1 µM [inhibitor, single point]"}, {"smiles": "CCOC(=O)CCn1cnc2onc(-c3cc(OC)ccc3Cl)c2c1=O", "Potency": "inactive"}, {"smiles": "COc1ccc(Br)cc1CNC(C)c1ccccc1", "note": "(centres undefined)", "Potency": "inconclusive: 14.1 µM [activator, partial curve, poor fit]"}, {"smiles": "CC(=O)N(C(C)=O)c1ncnc2c1c(-c1ccc(Cl)cc1)nn2C(C)(C)C", "Potency": "active: 15.8 µM"}, {"smiles": "Nc1nc(=S)ss1", "Potency": "inactive"}, {"smiles": "CCOc1ccccc1OCC(=O)Nc1ccccc1C(=O)NC1CC1", "Potency": "inconclusive: 35.5 µM [inhibitor, partial curve, poor fit]"}, {"smiles": "Cc1cc(C)n(NC(=S)NC2CCCC2)c(=O)c1C#N", "Potency": "inactive"}, {"smiles": "C=CCn1c(=O)/c(=C/c2cc(OC)c(OC)c(OC)c2)s/c1=C(/C#N)c1nc2ccccc2n1C", "Potency": "inconclusive: 20.6 µM [inhibitor, single point]"}, {"smiles": "Cc1ccc(C2CCN(C(=O)Nc3ccc(Cl)cc3)C2)cc1", "note": "(centres undefined)", "Potency": "inconclusive: 2.24 µM [activator, partial curve, poor fit]"}, {"smiles": "c1csc(CN2CCNCC2)c1", "Potency": "inconclusive: 0.891 µM [inhibitor, single point]"}, {"smiles": "CCn1c(SCC(=O)Nc2cc(OC)ccc2OC)nc2c(c1=O)SCC2", "Potency": "inconclusive: 8.91 µM [inhibitor, partial curve, poor fit]"}, {"smiles": "COc1cc(NC(=O)c2cccs2)c(C(=O)OCC(=O)c2cc(C)n(-c3ccccc3)c2C)cc1OC", "Potency": "inconclusive: 6.31 µM [inhibitor, full curve]"}, {"smiles": "CC1CCN(CCOCCOc2ccccc2Br)CC1", "Potency": "inactive"}, {"smiles": "CCOc1ccc(/C=C2/C(=O)N(c3ccc(OC)cc3)C(=S)N2CC(=O)OC)cc1OCC", "Potency": "inconclusive: 29.1 µM [inhibitor, single point]"}, {"smiles": "CC(C)Nc1ccc(Nc2ccccc2)cc1", "Potency": "inconclusive: 15.8 µM [inhibitor, single point]"}, {"smiles": "Cc1ccnc(NC(=O)CS(=O)(=O)c2ccccc2)c1", "Potency": "inactive"}, {"smiles": "Cc1ccccc1NS(=O)(=O)c1ccc(C(=O)NNC(=O)c2ccccc2O)cc1", "Potency": "inconclusive: 14.1 µM [inhibitor, single point]"}, {"smiles": "O=C(Nc1nnc(C2CCCCC2)s1)c1ccco1", "Potency": "inactive"}, {"smiles": "COc1ccc(-n2c(C)cc(C(=O)COC(=O)Cc3n[nH]c(=O)c4ccccc34)c2C)cc1", "Potency": "inconclusive: 20 µM [inhibitor, single point]"}, {"smiles": "Cc1ccccc1NS(=O)(=O)c1cc(C(=O)NCCSC2CCCCC2)ccc1C", "Potency": "active: 8.2 µM"}, {"smiles": "CCc1ccc(NC(=S)NC2CC3CCCC(C2)N3Cc2cccs2)cc1", "note": "(centres undefined)", "Potency": "inconclusive: 32.6 µM [inhibitor, single point]"}, {"smiles": "O=S(=O)(c1ccc(-c2cc(C(F)(F)F)on2)s1)N1CCN(c2ccccc2)CC1", "Potency": "inconclusive: 35.5 µM [activator, single point]"}, {"smiles": "O=C(c1ccc2ncsc2c1)N1CCCCC1", "Potency": "inconclusive: 5.01 µM [activator, single point]"}, {"smiles": "O=C(NC1CCCCC1)C(c1ccco1)N(Cc1cccnc1)C(=O)C1COc2ccccc2O1", "note": "(centres undefined)", "Potency": "inconclusive: 29.1 µM [inhibitor, partial curve, poor fit]"}, {"smiles": "Cc1ccc(Cl)cc1NC(=S)N(Cc1cccnc1)Cc1ccccc1Cl", "Potency": "inconclusive: 15.8 µM [inhibitor, single point]"}, {"smiles": "Cc1ccc(C(=O)Nc2ccccc2)cc1S(=O)(=O)Nc1ccc(Br)cc1", "Potency": "inconclusive: 10 µM [inhibitor, partial curve, poor fit]"}, {"smiles": "O=C(CC1Sc2ccccc2NC1=O)Nc1cccnc1", "note": "(centres undefined)", "Potency": "inconclusive: 1.46 µM [inhibitor, partial curve, poor fit]"}, {"smiles": "Cn1cc(Cl)c(C(=O)Nc2nc3ccccc3s2)n1", "Potency": "inconclusive: 18.3 µM [inhibitor, single point]"}, {"smiles": "O=C(CC1SC(=Nc2ccccc2)N(CCO)C1=O)Nc1ccccc1", "note": "(centres undefined)", "Potency": "inconclusive: 0.562 µM [inhibitor, full curve, poor fit]"}, {"smiles": "COc1ccc(C(=O)Nc2ccc(N3CCN(C(=O)c4ccccc4)CC3)cc2)cc1[N+](=O)[O-]", "Potency": "inconclusive: 35.5 µM [inhibitor, single point]"}, {"smiles": "Cc1ccc(-n2ncc3c(=O)n(-c4ccc(C)c(C)c4)c(C)nc32)cc1", "Potency": "inactive"}, {"smiles": "O=C(CN(Cc1ccc(Cl)cc1)S(=O)(=O)c1ccccc1)NCC1CCCO1", "note": "(centres undefined)", "Potency": "inconclusive: 35.5 µM [inhibitor, single point]"}, {"smiles": "CCC(=O)NC(=S)Nc1ccc(-c2nc3ccc(C)cc3s2)cc1", "Potency": "inconclusive: 11.2 µM [activator, partial curve]"}, {"smiles": "Cc1ccccc1-c1nc(CS(=O)(=O)CC(=O)NCCc2ccccc2)c(C)o1", "Potency": "inactive"}, {"smiles": "CC(C)(C)S(=O)(=O)c1cnc(-c2ccccn2)nc1N", "Potency": "inconclusive: 31.6 µM [activator, single point]"}, {"smiles": "O=C(NCCN1C(=O)S/C(=C\\c2ccccc2)C1=O)c1cc(S(=O)(=O)N2CCOCC2)c(Cl)cc1Cl", "Potency": "inconclusive: 35.5 µM [inhibitor, single point]"}, {"smiles": "Cc1cc(C)nc(-n2ncc3c2CC(c2cccc(Cl)c2)CC3=O)n1", "note": "(centres undefined)", "Potency": "inconclusive: 35.5 µM [inhibitor, single point]"}, {"smiles": "Cc1ccc(NC(=S)N=Nc2c(O)n(C)c3ccc(S(=O)(=O)N4CCOCC4)cc23)cc1", "Potency": "inconclusive: 3.16 µM [inhibitor, partial curve, poor fit]"}, {"smiles": "COc1ccc(/C=N/NC(=O)c2ccc(COc3cccc4cccnc34)cc2)cc1O", "Potency": "inconclusive: 14.1 µM [inhibitor, single point]"}, {"smiles": "Cc1ccc(S(=O)(=O)NNC(=O)c2ccc(O)cc2)cc1", "Potency": "inactive"}, {"smiles": "O=C(Nc1ccc(F)cc1F)c1ccc(S(=O)(=O)N2CCCCC2)cc1", "Potency": "inconclusive: 14.1 µM [inhibitor, partial curve, poor fit]"}, {"smiles": "Cc1cccc(Oc2coc3cc(OC(=O)c4cccs4)ccc3c2=O)c1", "Potency": "inactive"}, {"smiles": "Cc1cccc(OCCCN2CCCCCC2)c1", "Potency": "inconclusive: 4.11 µM [inhibitor, partial curve, poor fit]"}, {"smiles": "Fc1ccc(CNc2ncccn2)cc1", "Potency": "inactive"}, {"smiles": "C=CCn1c(=N)c(C(=O)NCCCOC)cc2c(=O)n3cc(C)ccc3nc21", "Potency": "inactive"}, {"smiles": "COC(=O)C1=C(C)N(C)C(=O)NC1c1c(O)ccc2ccccc12", "note": "(centres undefined)", "Potency": "inactive"}, {"smiles": "O=C(N/N=C/c1ccncc1)c1ccc2c(c1)OCO2", "Potency": "inactive"}, {"smiles": "O=C(CSc1nnc(NC2CCCCC2)s1)Nc1ccc(N2CCOCC2)cc1", "Potency": "inactive"}, {"smiles": "COc1ccccc1C(=O)NCCC(=O)N1CCN(c2ccccc2Cl)CC1", "Potency": "inactive"}, {"smiles": "COC(=O)c1ccc2c(=O)[nH]c(CCl)nc2c1", "Potency": "inconclusive: 32.6 µM [inhibitor, single point]"}, {"smiles": "O=C(Oc1ccc(Br)cc1C(=O)/C=C/c1ccccc1F)c1ccco1", "Potency": "inconclusive: 35.5 µM [inhibitor, single point]"}, {"smiles": "CCOc1ccccc1NC(=O)N1c2ccccc2Sc2ccccc21", "Potency": "inconclusive: 35.5 µM [inhibitor, single point]"}, {"smiles": "Cc1ccc(NC(=O)Cn2nnc3sc4c(c3c2=O)CCC(C)C4)cc1", "note": "(centres undefined)", "Potency": "inconclusive: 0.891 µM [inhibitor, full curve, poor fit]"}, {"smiles": "COC(=O)C1C(c2ccc(Br)cc2)Nc2nnc(C(F)(F)F)n2C1(C)O", "note": "(centres undefined)", "Potency": "inconclusive: 0.562 µM [activator, full curve, poor fit]"}]}]}
